No constants are given. Whether binding was seen depends on the method and setting. Some results given as binding are weak or reduced against the parent protein; the word gives no strength.

The values below come from paper doi:10.1101/2021.12.02.471034.

The target of the assay is T1, Heat shock factor 1 (Hsf1) (human), Q00613.
T1 chain: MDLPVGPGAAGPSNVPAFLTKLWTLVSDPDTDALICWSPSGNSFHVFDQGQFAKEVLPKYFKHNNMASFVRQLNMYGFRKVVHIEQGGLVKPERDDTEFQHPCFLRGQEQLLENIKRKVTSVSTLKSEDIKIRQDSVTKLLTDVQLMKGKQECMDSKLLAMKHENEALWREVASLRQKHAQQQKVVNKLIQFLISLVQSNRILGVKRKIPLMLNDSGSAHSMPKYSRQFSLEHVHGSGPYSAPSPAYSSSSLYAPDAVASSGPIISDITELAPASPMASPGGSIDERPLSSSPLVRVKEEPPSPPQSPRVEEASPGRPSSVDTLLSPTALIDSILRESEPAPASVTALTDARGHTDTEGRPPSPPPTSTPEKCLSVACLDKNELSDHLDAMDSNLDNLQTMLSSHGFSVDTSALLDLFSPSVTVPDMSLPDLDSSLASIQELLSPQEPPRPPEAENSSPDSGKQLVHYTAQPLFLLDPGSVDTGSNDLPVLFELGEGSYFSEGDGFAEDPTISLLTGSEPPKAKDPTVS
Nature of the assay: non-reducing SDS-PAGE after NEM quenching. The conditions noted are these: remark: other sources report otherwise.

B1: Heat shock factor 1 (Hsf1), Q00613 1-529 (natural protein)
chain: MDLPVGPGAAGPSNVPAFLTKLWTLVSDPDTDALICWSPSGNSFHVFDQGQFAKEVLPKYFKHNNMASFVRQLNMYGFRKVVHIEQGGLVKPERDDTEFQHPCFLRGQEQLLENIKRKVTSVSTLKSEDIKIRQDSVTKLLTDVQLMKGKQECMDSKLLAMKHENEALWREVASLRQKHAQQQKVVNKLIQFLISLVQSNRILGVKRKIPLMLNDSGSAHSMPKYSRQFSLEHVHGSGPYSAPSPAYSSSSLYAPDAVASSGPIISDITELAPASPMASPGGSIDERPLSSSPLVRVKEEPPSPPQSPRVEEASPGRPSSVDTLLSPTALIDSILRESEPAPASVTALTDARGHTDTEGRPPSPPPTSTPEKCLSVACLDKNELSDHLDAMDSNLDNLQTMLSSHGFSVDTSALLDLFSPSVTVPDMSLPDLDSSLASIQELLSPQEPPRPPEAENSSPDSGKQLVHYTAQPLFLLDPGSVDTGSNDLPVLFELGEGSYFSEGDGFAEDPTISLLTGSEPPKAKDPTVS
For B1, the binding result is “binds”.
